These are yes or no findings as the source states them, for the method shown. Binding seen in cells or lysates may run through a third protein. Some entries that bind do so weakly or less than the wild type.
Biological target: Flag-tagged wild-type full-length BARD1 (BRCA1-associated RING domain 1) (UniProt Q99728)
Experiment: co-IP; HEK293T transfected with Flag-BARD1; nuclear extracts (buffer C: 20 mM HEPES, 480 mM KCl, 0.1% Igepal CA-630, 0.1% SDS) on anti-FLAG beads overnight at 4 °C; western blotting for endogenous proteins; cells with full-length BARD1 also exposed to 10 Gy of IR

Protein sequences, listed by entry. Tags and fused reporters are not part of them.
UniProt Q99728: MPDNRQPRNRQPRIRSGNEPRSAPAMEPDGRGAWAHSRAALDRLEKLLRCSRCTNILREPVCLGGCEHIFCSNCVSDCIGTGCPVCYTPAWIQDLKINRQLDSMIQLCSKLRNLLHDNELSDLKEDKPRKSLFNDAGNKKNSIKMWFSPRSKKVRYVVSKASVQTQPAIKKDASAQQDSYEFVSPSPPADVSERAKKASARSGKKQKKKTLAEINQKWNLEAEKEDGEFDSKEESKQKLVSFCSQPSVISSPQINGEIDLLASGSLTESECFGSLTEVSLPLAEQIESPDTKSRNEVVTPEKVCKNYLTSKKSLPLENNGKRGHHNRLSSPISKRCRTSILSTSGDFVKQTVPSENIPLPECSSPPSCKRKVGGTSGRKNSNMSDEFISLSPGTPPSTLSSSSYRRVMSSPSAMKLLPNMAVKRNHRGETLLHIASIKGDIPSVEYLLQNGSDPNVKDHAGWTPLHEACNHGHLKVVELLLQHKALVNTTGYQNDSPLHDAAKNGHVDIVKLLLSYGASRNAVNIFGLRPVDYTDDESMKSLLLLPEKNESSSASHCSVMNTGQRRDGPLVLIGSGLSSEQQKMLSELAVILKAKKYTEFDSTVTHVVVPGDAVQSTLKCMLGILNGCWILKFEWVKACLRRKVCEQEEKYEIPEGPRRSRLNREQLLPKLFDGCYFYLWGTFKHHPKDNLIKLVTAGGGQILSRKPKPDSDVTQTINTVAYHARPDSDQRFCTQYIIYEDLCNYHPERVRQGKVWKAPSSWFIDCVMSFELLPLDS
UniProt Q92560: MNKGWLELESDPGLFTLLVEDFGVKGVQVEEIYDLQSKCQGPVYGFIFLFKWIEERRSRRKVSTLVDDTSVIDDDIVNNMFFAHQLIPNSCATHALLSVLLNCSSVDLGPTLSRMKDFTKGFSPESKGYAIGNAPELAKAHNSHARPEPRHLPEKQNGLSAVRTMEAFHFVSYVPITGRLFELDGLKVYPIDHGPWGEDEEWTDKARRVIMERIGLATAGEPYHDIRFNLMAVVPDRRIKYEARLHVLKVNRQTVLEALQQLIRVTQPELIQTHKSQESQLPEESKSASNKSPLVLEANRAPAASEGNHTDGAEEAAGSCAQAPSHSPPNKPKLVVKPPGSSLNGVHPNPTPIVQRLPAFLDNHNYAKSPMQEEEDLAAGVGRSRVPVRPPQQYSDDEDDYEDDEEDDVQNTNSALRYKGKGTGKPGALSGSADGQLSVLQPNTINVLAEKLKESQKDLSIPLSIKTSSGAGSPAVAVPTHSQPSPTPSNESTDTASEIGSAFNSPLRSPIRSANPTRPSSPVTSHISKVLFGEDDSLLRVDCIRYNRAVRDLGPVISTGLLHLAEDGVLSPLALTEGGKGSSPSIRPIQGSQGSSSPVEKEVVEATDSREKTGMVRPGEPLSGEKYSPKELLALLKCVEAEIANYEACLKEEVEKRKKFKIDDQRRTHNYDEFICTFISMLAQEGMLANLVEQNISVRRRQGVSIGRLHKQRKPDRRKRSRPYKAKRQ

BAP1 (BRCA1 Associated Protein-1) (from UniProt Q92560 1-729)
binding: binds

From article PMC7295806
